Reference: PubChem BioAssay AID1259405 (NCATS, 2018)
Assay: 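Knock-downs that lift recombinant protein yield in hamster ovary cells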 (primary screen). Cell system: Chinese hamster CHO-K1 ovary cells with stable secreted eGFP expression. Knock-down reagent: single siRNA against mouse genes, 0.8 pmol siRNA per well (2 µl of 400 nM stock). Timing: 3 days. Detection: 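Per-well intracellular GFP measured by laser scanning cytometry, plus viability from ATP luminescence, each relative to plate median of non-targeting control wells, in %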. Scale: GFP, % of control: higher = more GFP per well, higher productivity; viability (ATP), % of control: higher = more viable cells (more ATP). Active means: 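Called active when intracellular GFP, relative to negative control, is at or above 120%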.
This is one part, drawn at random, of about 50,000 reagents tested. Of all reagents, about 4,000 (8%) were called active. 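Mouse siRNA library applied to hamster cells; one well for each siRNA.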 Entries without a mark were called inactive. The numbers tell different reagents against one gene apart. Reagent sequences are not shown.

Which result is listed for Ciao2b (cytosolic iron-sulfur assembly component 2B) #1?
GFP, % of control: 77.8; viability (ATP), % of control: 86

With Ciao2b (cytosolic iron-sulfur assembly component 2B) #2, what does the deposit list?
GFP, % of control: 70.6; viability (ATP), % of control: 75.8

For Ciao2b (cytosolic iron-sulfur assembly component 2B) #3, what was measured?
GFP, % of control: 105; viability (ATP), % of control: 76.1

For Cfc1 (cryptic, EGF-CFC family member 1) #1, how do the results read?
GFP, % of control: 80.3; viability (ATP), % of control: 67.2

How did the screen score Cfc1 (cryptic, EGF-CFC family member 1) #2?
GFP, % of control: 73.8; viability (ATP), % of control: 53.2

How did the screen score Cfc1 (cryptic, EGF-CFC family member 1) #3?
GFP, % of control: 87.3; viability (ATP), % of control: 127

Which result is listed for Mtln (mitoregulin) #1?
GFP, % of control: 99.2; viability (ATP), % of control: 83.8

Which result is listed for Mtln (mitoregulin) #2?
GFP, % of control: 65.9; viability (ATP), % of control: 70

What is on record for Mtln (mitoregulin) #3?
GFP, % of control: 55.8; viability (ATP), % of control: 83.2

With Arl8b (ADP-ribosylation factor-like 8B) #1, what was measured?
GFP, % of control: 45.9; viability (ATP), % of control: 56.2

How did the screen score Arl8b (ADP-ribosylation factor-like 8B) #2?
GFP, % of control: 50.6; viability (ATP), % of control: 50.5

Which result is listed for Arl8b (ADP-ribosylation factor-like 8B) #3?
GFP, % of control: 86.7; viability (ATP), % of control: 78.4

With Ankrd49 (ankyrin repeat domain 49) #1, what does the deposit list?
GFP, % of control: 47.1; viability (ATP), % of control: 85

How did the screen score Ankrd49 (ankyrin repeat domain 49) #2?
GFP, % of control: 73.5; viability (ATP), % of control: 82.9

With Ankrd49 (ankyrin repeat domain 49) #3, what was measured?
GFP, % of control: 74.7; viability (ATP), % of control: 94

What is on record for Zfp979 (zinc finger protein 979) #1?
GFP, % of control: 100; viability (ATP), % of control: 94.6

Which result is listed for Zfp979 (zinc finger protein 979) #2?
GFP, % of control: 64.1; viability (ATP), % of control: 51.6

Which result is listed for Zfp979 (zinc finger protein 979) #3?
GFP, % of control: 86.7; viability (ATP), % of control: 82.4

Single entries from above.
For “viability (ATP), % of control”, Ankrd49 (ankyrin repeat domain 49) #1 reads 85
Cfc1 (cryptic, EGF-CFC family member 1) #1, viability (ATP), % of control: 67.2

Additional entries follow:
Which result is listed for Zfp821 (zinc finger protein 821) #1?
GFP, % of control: 65.6; viability (ATP), % of control: 57.3

For Zfp821 (zinc finger protein 821) #2, what does the deposit list?
GFP, % of control: 85.9; viability (ATP), % of control: 45.5

For Zfp821 (zinc finger protein 821) #3, what does the deposit list?
GFP, % of control: 89.8; viability (ATP), % of control: 91.3

What is on record for Zfp74 (zinc finger protein 74) #1?
GFP, % of control: 134 (active); viability (ATP), % of control: 83.4

Which result is listed for Zfp74 (zinc finger protein 74) #2?
GFP, % of control: 88.3; viability (ATP), % of control: 69.4

For Ap4b1 (adaptor-related protein complex AP-4, beta 1) #1, what was measured?
GFP, % of control: 83.4; viability (ATP), % of control: 104

How did the screen score Ap4b1 (adaptor-related protein complex AP-4, beta 1) #2?
GFP, % of control: 63.8; viability (ATP), % of control: 79.4

Which result is listed for 4932414J04Rik (RIKEN cDNA 4932414J04 gene) #1?
GFP, % of control: 88.1; viability (ATP), % of control: 60.2

With 4932414J04Rik (RIKEN cDNA 4932414J04 gene) #2, what does the deposit list?
GFP, % of control: 96.8; viability (ATP), % of control: 105

With 4932414J04Rik (RIKEN cDNA 4932414J04 gene) #3, how do the results read?
GFP, % of control: 111; viability (ATP), % of control: 73.1

With Mdh1b (malate dehydrogenase 1B, NAD (soluble)) #1, how do the results read?
GFP, % of control: 101; viability (ATP), % of control: 55

For Mdh1b (malate dehydrogenase 1B, NAD (soluble)) #2, what was measured?
GFP, % of control: 74.5; viability (ATP), % of control: 61.3

For Mdh1b (malate dehydrogenase 1B, NAD (soluble)) #3, what was measured?
GFP, % of control: 91.3; viability (ATP), % of control: 112

With Npvf (neuropeptide VF precursor) #1, what was measured?
GFP, % of control: 66.4; viability (ATP), % of control: 60.3

What is on record for Npvf (neuropeptide VF precursor) #2?
GFP, % of control: 80.3; viability (ATP), % of control: 72.1

What is on record for Npvf (neuropeptide VF precursor) #3?
GFP, % of control: 53.6; viability (ATP), % of control: 54.6

With Camk2g (calcium/calmodulin-dependent protein kinase II gamma) #1, what was measured?
GFP, % of control: 118; viability (ATP), % of control: 119

With Camk2g (calcium/calmodulin-dependent protein kinase II gamma) #2, how do the results read?
GFP, % of control: 81; viability (ATP), % of control: 64.8

Which result is listed for Camk2g (calcium/calmodulin-dependent protein kinase II gamma) #3?
GFP, % of control: 79; viability (ATP), % of control: 68.8

How did the screen score Or6c70 (olfactory receptor family 6 subfamily C member 70) #1?
GFP, % of control: 67.5; viability (ATP), % of control: 58.7

For Or6c70 (olfactory receptor family 6 subfamily C member 70) #2, what does the deposit list?
GFP, % of control: 92.8; viability (ATP), % of control: 30.3

With Or6c70 (olfactory receptor family 6 subfamily C member 70) #3, what was measured?
GFP, % of control: 88.2; viability (ATP), % of control: 59.5
